Three molecules from article PMC3445812 can be followed below.

Common to all, as to assay: SEC; S200 16/60 gel filtration column in 20 mM Hepes pH 7.4, 500 mM NaCl, 0.5 mM TCEP, after Ni2+ IMAC; retention volumes compared with molecular weight standards; both purified
In assay [1] the target is T1, Mitogen-activated protein kinase 3 (residues 1-379) (human), P27361.
T1 chain: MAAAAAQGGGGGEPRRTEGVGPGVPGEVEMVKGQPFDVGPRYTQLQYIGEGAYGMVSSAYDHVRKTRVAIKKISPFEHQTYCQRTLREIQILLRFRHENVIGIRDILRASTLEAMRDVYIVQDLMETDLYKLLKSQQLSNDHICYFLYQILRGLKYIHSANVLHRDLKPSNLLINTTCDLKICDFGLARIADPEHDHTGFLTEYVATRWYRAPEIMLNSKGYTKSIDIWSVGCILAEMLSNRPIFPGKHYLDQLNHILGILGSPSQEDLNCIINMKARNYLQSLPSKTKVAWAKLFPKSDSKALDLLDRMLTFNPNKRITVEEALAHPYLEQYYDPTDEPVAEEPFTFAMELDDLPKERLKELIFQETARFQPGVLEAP
To be noted: remark: other sources report otherwise.

The target in assay [2] is Mitogen-activated protein kinase 13 (residues 15-359) (human) (UniProt O15264).
The target of assay [3] is Mitogen-activated protein kinase 9 (residues 1-380) (human) (UniProt P45984).

No constants are given. Whether binding was seen depends on the method and setting.

B1: Mitogen-activated protein kinase 3 (residues 1-379), P27361 1-379 (enzyme)
chain: T1 chain
modifications: here or on the partner: 0-1 phosphorylations (modal value 0), sites not mapped; 0-1 phosphorylations (modal value 0), sites not mapped
Regarding B1, in assay [1], the binding entry is “no binding”.

B2: Mitogen-activated protein kinase 13 (residues 15-359) (domain or fragment, UniProt O15264 15-359)
chain: NKTAWELPKTYVSPTHVGSGAYGSVCSAIDKRSGEKVAIKKLSRPFQSEIFAKRAYRELLLLKHMQHENVIGLLDVFTPASSLRNFYDFYLVMPFMQTDLQKIMGMEFSEEKIQYLVYQMLKGLKYIHSAGVVHRDLKPGNLAVNEDCELKILDFGLARHADAEMTGYVVTRWYRAPEVILSWMHYNQTVDIWSVGCIMAEMLTGKTLFKGKDYLDQLTQILKVTGVPGTEFVQKLNDKAAKSYIQSLPQTPRKDFTQLFPRASPQAADLLEKMLELDVDKRLTAAQALTHPFFEPFRDPEEETEAQQPFDDSLEHEKLTVDEWKQHIYKEIVNFSPIARKDSRR
With B2, the binding result in assay [2] was “no binding”.

B3: Mitogen-activated protein kinase 9 (residues 1-380) (domain or fragment, UniProt P45984 1-380)
chain: MSDSKCDSQFYSVQVADSTFTVLKRYQQLKPIGSGAQGIVCAAFDTVLGINVAVKKLSRPFQNQTHAKRAYRELVLLKCVNHKNIISLLNVFTPQKTLEEFQDVYLVMELMDANLCQVIHMELDHERMSYLLYQMLCGIKHLHSAGIIHRDLKPSNIVVKSDCTLKILDFGLARTACTNFMMTPYVVTRYYRAPEVILGMGYKENVDIWSVGCIMGELVKGCVIFQGTDHIDQWNKVIEQLGTPSAEFMKKLQPTVRNYVENRPKYPGIKFEELFPDWIFPSESERDKIKTSQARDLLSKMLVIDPDKRISVDEALRHPYITVWYDPAEAEAPPPQIYDAQLEEREHAIEEWKELIYKEVMDWEERSKNGVVKDQPSDAA
Consider B3, for which the binding entry in assay [3] was “no binding”.
